Data reported in publication PMC12370185.
This is one part of the list.

The sequences below were run on KLF4 + histone octamer (assay: EMSA with sequencing). Conditions: 10 mM Tris-Cl pH 7.5, 50 mM NaCl, 1 mM DTT, 0.25 mg/ml BSA, 2 mM MgCl2, 0.025% Nonidet P-40, 5% glycerol; 28 nM nucleosome library; 10 min on ice then 30 min …; high values mean tight binding; double strand, one strand shown.

Question: For “GATGGACCCTATACGCGGCTACTGTAGTGCAGCAAATATCTGTAGTGGCTAAAACTACATTTATTACTCCTTGTAAGTCTGTGTGTTTGCGGGGTAGATTAACTGATACAGGCTGGGCTTGACCAATCTCAATCTCAATGAGCTTGTTCATGTCCTGTGGTCAGTGGGGGATTGGCTAGTCTAGGATGGTCATGGCTGGGAGATATCATCTGCCAGTCGGATAGTGTTCC”, which binding signal (log2 relative supershift) is on record?
Answer: Its binding signal (log2 relative supershift) is 1.56.

Question: “GATGGACCCTATACGCGGCAGCTGGGAGAGGCTAGTAGGGTGTGTGGGCAGGGAGGGGTGGAGGAGTCCTGGGAGGAGAGGAAGGGAGGCACAGGGTAGGAGTGTGCAGAGCGGGGAGTGGATGGCAAACACACAATCCACCCAACCACATGTGCTCTTTACCCCCCAGCTGATCCAGAAGTACAAGGTGGTCCTGGCCCCGGAGACGGGTGCCAGTCGGATAGTGTTCC” was tested. Which binding signal (log2 relative supershift) did it give?
Answer: The binding signal (log2 relative supershift) was 1.67.

Question: With “GATGGACCCTATACGCGGCATAGCACAGTAGCTGTGAGGAAGTGACCGCTCAGGTGTTGGGTGATGTGTCTAGGGTCACATTGCCTAGAAGAGTGGCAGGGCTGCGCTTGCTGCAGGCTTGCTTGATCCTGAAGCCCTGGTTCCTCTCACCATGCCCTGGGCTGCAGAACTCACTTCTGGGCCTTGTAAGGCCGCTGGTGGGTAATGGTGTGCCAGTCGGATAGTGTTCC” as the sequence, how does the binding signal (log2 relative supershift) read?
Answer: The binding signal (log2 relative supershift) was 0.951.

Question: Which binding signal (log2 relative supershift) does the source give for “GATGGACCCTATACGCGGCCCGCCCCAGCAGGCCCATTGCATCAGCTGCAGGCCGGGGGTTGGGGGGTGTCCCAGCCCTCAGCTTGCCCACTCCCTCCTGCCCAGCCCTGCCCTGGCTTTCCTGCTCTGCTCCCACCCACAGCTCCCTGACATTGTCACCTACCTCCTGAGCTGTCACCACAGGGCGCACGGGACTCCGCTGCCCCAGGTTGCCAGTCGGATAGTGTTCC” here?
Answer: The binding signal (log2 relative supershift) was 1.51.

Question: Which binding signal (log2 relative supershift) does the source give for “GATGGACCCTATACGCGGCCCTTCCTGCAGACCTGGCTGGGCCTGGGCTTCCACAGTGTGAAGACACTGTGCAGGCCCAGGCAGGCCCAGCCTCTGCCCCACCCATCAGTGGAGTCCAGATGGCAGGCTACAGTTGGGAAGTCTCAGCCTGGGCCCCTCAGCCACCCTTGGTCTCATGCCCCGCCATGGTCACCCTCAGGAACCCACCCTTGCCAGTCGGATAGTGTTCC” here?
Answer: Its binding signal (log2 relative supershift) is 2.48.

Question: “GATGGACCCTATACGCGGCATTGGGAATCTGGGAGCACTCTTCTTGGTGCCTTTGGCTCAGGATCACTCACAAGGCTGCAGTCAAGGTATCCCCTGGGGCAGCCATCGTCTCAAGCCTCCGCTGGAAGAGGGTGCATGTCCAAGCTTGCCCATGTGGCTGTGGGCAGGCCTCAAGTCTTCACTGGCTGTTGGCTGAAGGCATCAATTTCTTGCCAGTCGGATAGTGTTCC” was tested. Which binding signal (log2 relative supershift) did it give?
Answer: Its binding signal (log2 relative supershift) is 1.75.

Question: Which binding signal (log2 relative supershift) does the source give for “GATGGACCCTATACGCGGCAGCATGATTCTCGCGATCCATTACTTCTGAAACAGATGACTCCCAGCAGCTGCTGCCTGTGGCCCACAGGGCTTCCTGCCCTGCATGACAGCTGCACATCACATCCTGTGGTCATACTACTTCAGCCGCTTCTACGGCCAGATACAAAAGTGGGTGGGGAACATAGGCAAGGGATCCAGCGACTTTACCGGTGCCAGTCGGATAGTGTTCC” here?
Answer: The binding signal (log2 relative supershift) was 2.06.

Question: For “GATGGACCCTATACGCGGCTGGTTTTCTTGCCTATATACACCACATACACCATATACCTATATACCTATACACATGTGGTGTATATAGAAGGGAAGTGTATGTGCTGTGTGTGCTGTGCATACTGTGGGTGGTGTAGTGATATATGCATATGTGGTGTGTGTGGAGTATATTGGGTGTGTGATGTGTATGGTATATATTGGGTGTGTGTGTGCCAGTCGGATAGTGTTCC”, which binding signal (log2 relative supershift) is on record?
Answer: Its binding signal (log2 relative supershift) is 1.8.

Question: How did the binding signal (log2 relative supershift) turn out when “GATGGACCCTATACGCGGCATTGCCGTGGGAGTGCCAACTACTGTGGAATAACAGGCCCAGCCCTGCAGGCTCGGGCACGCTGTGCTGTAGGCCACAGCAACCACAGGCTCTGAGGCCTCTGGCCGCTCCAGGAGGGAGGGGTGCCGGGACAGAGACGCCCTCAGGCCTGGGAAGGCAAACTTGGAGGTGGGGTGGAGGGGACTTGAGGATGCCAGTCGGATAGTGTTCC” was run?
Answer: Its binding signal (log2 relative supershift) is 2.57.

Question: With “GATGGACCCTATACGCGGCCCCACGGACACACATACATCAACACCCCCAAAACACACCCACATGTCACCAACTCTCAGGACACACGTAGATCAGGCACACACAGACACATGCCATCAGACCTCAACACACCACCAGACACCAACCCACCCTCCTCACGCAACCCTCAAACATCATCACCAACTGTCAGCAACACACACACACACACACCCTGCCAGTCGGATAGTGTTCC” as the sequence, how does the binding signal (log2 relative supershift) read?
Answer: Its binding signal (log2 relative supershift) is 2.76.

Question: How did the binding signal (log2 relative supershift) turn out when “GATGGACCCTATACGCGGCAGCCCCTGCCTCCCTCCCTGCAGCTCCCAGACAGGCTGGGCCCCAGCAGCAGGCCGGGCTGTCTGGCTGCTGTTCAACAGGGAGTCCAGCTGCCTGGGGTCCTACAGAACGGGGCTGGGCAGGCATTCTTCTCTGTCCAGGCTCTGGCTTCAGGGCCAGGAAGGCAGGAGTTGTTGAGGTGCCTTAGTTTTTGCCAGTCGGATAGTGTTCC” was run?
Answer: The binding signal (log2 relative supershift) was 1.55.
